According to the supplement of paper PMC3741180, “A Novel High Throughput Biochemical Assay to Evaluate the HuR Protein-RNA Complex Formation” (PLoS ONE, 2013):
This is one part of the list. This data set is noisy: repeats of one test often differ as much as different tests do.

Chains of the proteins cited; added tags and fusions are not shown.
UniProt Q15717, whole entry: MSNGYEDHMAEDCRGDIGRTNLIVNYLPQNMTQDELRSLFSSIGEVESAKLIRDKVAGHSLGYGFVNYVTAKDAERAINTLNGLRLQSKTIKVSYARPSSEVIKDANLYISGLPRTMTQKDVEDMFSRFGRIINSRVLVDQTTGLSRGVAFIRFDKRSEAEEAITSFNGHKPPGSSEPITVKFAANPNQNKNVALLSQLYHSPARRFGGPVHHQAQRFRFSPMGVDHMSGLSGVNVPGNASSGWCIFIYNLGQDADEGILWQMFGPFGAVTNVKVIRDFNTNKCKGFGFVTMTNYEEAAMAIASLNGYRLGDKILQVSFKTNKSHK

Molecular target: HuR (ELAVL1) - TNFalpha ARE RNA complex (UniProt Q15717)
Assay: AlphaScreen HuR-RNA complex signal Z-score relative to positive (Bi-TNF, DMSO) controls (Z-score (SD units of positive control)); higher = more complex signal
Conditions: screen stage: primary screen; compound concentration: 25 nM

Compound	AlphaScreen HuR-RNA complex signal Z-score
O=c1c(-c2ccc(O)cc2)coc2cc(O)cc(O)c12	2.31
O=C1C=C2CC3(O)COc4cc(O)ccc4C3=C2C=C1O (centres undefined)	0.986
N[C@H](Cc1ccccc1)C(=O)O	3.05
O=C1C=CC(=C(c2ccc(O)cc2)c2ccc(O)cc2)C=C1	2.16
CCCc1nc(C)c2c(O)nc(-c3cc(S(=O)(=O)N4CCN(CC)CC4)ccc3OCC)nn12	0.457
CCN(CC)CCNC(=O)c1ccc(NC(C)=O)cc1	3.6
CNC[C@H](O)c1cccc(O)c1	2.96
CC(C)(CO)[C@@H](O)C(=O)NCCCO	2.18
O=C(O[C@@H]1Cc2c(O)cc(O)cc2O[C@@H]1c1cc(O)c(O)c(O)c1)c1cc(O)c(O)c(O)c1	1.57
CC(C(=O)O)[C@H]1CCC2C3CC=C4C[C@@H](O)CC[C@]4(C)C3CC[C@@]21C (stereo partly drawn) [3beta-HYDROXY-23,24-BISNORCHOL-5-ENIC ACID]	1.86
NS(=O)(=O)c1cc2c(cc1Cl)N=C(CSCc1ccccc1)NS2(=O)=O	0.987
CC(=O)OC/C=C(C)/C=C/C=C(C)/C=C/C1=C(C)CCCC1(C)C	3.23
O=C1C(CC[S+]([O-])c2ccccc2)C(=O)N(c2ccccc2)N1c1ccccc1 (centres undefined)	11.2
CC(C)c1ccc2c(c1)CCC1C(C)(C(N)=O)CCCC21C (centres undefined)	1.83
COc1cc(OC)c2c(=O)c(OC)c(-c3ccc(OC)c(OC)c3)oc2c1	0.268
CC[C@@]1(O)C(=O)OCc2c1cc1n(c2=O)Cc2cc3cc(O)ccc3nc2-1	1.69
O=C(O)Cc1ccccc1Nc1c(Cl)cccc1Cl	-2.58
O=c1cc(-c2cc(O)c(O)c(O)c2)oc2cc(O)cc(O)c12	2.88
C[C@@H]1O[C@@H](Oc2c(-c3ccc(O)c(O)c3)oc3cc(O)cc(O)c3c2=O)[C@H](O)[C@H](O)[C@H]1O	0.676
N=c1ccn2c(n1)O[C@H]1[C@H](O)[C@@H](CO)O[C@H]12	-0.461
O=c1[nH]cc(F)c(=O)[nH]1	-4.7
O=C(O)c1cc(=O)c2cccc(O)c2[nH]1	1.23
C[C@]12C=CC(=O)C=C1CC[C@@H]1[C@@H]2[C@@H](O)C[C@@]2(C)[C@H]1CC[C@]2(O)C(=O)CO	7.26
CS(=O)(=O)c1ccc([C@@H](O)[C@@H](CO)NC(=O)C(Cl)Cl)cc1	0.891

Compound	AlphaScreen HuR-RNA complex signal Z-score
Clc1ccccc1CN1CCc2sccc2C1	2.96
Cc1cc(OC(=O)c2c(C)cc(O)cc2O)cc(O)c1C(=O)O	2.45
Nc1ccc(O)c(C(=O)O)c1	1.15
Cc1cc(C(C)(C)CC(C)(C)C)ccc1OCCOCC[N+](C)(C)Cc1ccccc1	1.61
Cc1cc(NC(=O)C2=C(O)c3ccccc3S(=O)(=O)N2C)no1	1.38
CN(C)CCCN1c2ccccc2CCc2ccc(Cl)cc21	4.66
COC(=O)C1=C(C)NC(C)=C(C(=O)OC)C1c1ccccc1[N+](=O)[O-]	-6.29
CO[C@@]1(NC(=O)C(C(=O)O)c2ccc(O)cc2)C(=O)N2C(C(=O)O)=C(CSc3nnnn3C)CO[C@@H]21 (some centres undefined)	-6.26
O=c1c(O)c(-c2ccccc2)oc2ccccc12	-0.548
C#C[C@]1(O)CC[C@H]2[C@@H]3CCC4=CC(=O)CC[C@@H]4[C@H]3CC[C@@]21C	6.55
C#C[C@]1(OC(C)=O)CC[C@H]2[C@@H]3CCC4=C[C@@H](OC(C)=O)CC[C@@H]4[C@H]3CC[C@@]21C	2.35
C[C@@H]1CC[C@@]2(OC1)O[C@H]1C[C@H]3[C@@H]4CC[C@H]5C[C@@H](O)CC[C@]5(C)[C@H]4CC[C@]3(C)[C@H]1[C@@H]2C	1.04
Nc1ccc(S(=O)(=O)Nc2ncccn2)cc1	6.16
Cc1c(Cl)cccc1Nc1ccccc1C(=O)O	1.65
CCCSc1ccc2[nH]c(NC(=O)OC)nc2c1	-3.15
C[C@@H]1CC[C@H]2C(C)(C)[C@H]3C[C@@]12CC[C@@]3(C)O	1.58
CC=C(C)C(=O)OC1C(OC(C)=O)C2(CO)C(O)CC3(C)C(=CCC4C5(C)CCC(OC6OC(C(=O)O)C(OC7OC(CO)C(O)C(O)C7O)C(O)C6OC6OC(CO)C(O)C(O)C6O)C(C)(CO)C5CCC43C)C2CC1(C)C (stereo not drawn) [beta-ESCIN]	1.44
CC(=O)C1=C(O)C=C2Oc3c(C(C)=O)c(O)c(C)c(O)c3C2(C)C1=O (stereo in doubt)	2.44
CO[C@H]1/C=C/O[C@@]2(C)Oc3c(C)c(O)c4c(O)c(c(/C=N/N5CCN(C)CC5)c(O)c4c3C2=O)NC(=O)/C(C)=C\C=C\[C@H](C)[C@H](O)[C@@H](C)[C@@H](O)[C@@H](C)[C@H](OC(C)=O)[C@@H]1C	-6.31
COc1cc(C)c(C(=O)O)c(O)c1	2.7
Cc1ccc(N(CC2=NCCN2)c2cccc(O)c2)cc1	-3.01
O=C(O)c1ccccc1-c1c2cc(I)c(=O)c(I)c-2oc2c(I)c(O)c(I)cc12	3.06
c1ccc(CC2=NCCN2)cc1	2.4
NCCCCC(=O)O	1.65

Compound	AlphaScreen HuR-RNA complex signal Z-score
OCCN1CCN(CCCN2c3ccccc3Sc3ccc(C(F)(F)F)cc32)CC1	-0.0557
CC(C)(Oc1ccc(CCNC(=O)c2ccc(Cl)cc2)cc1)C(=O)O	0.358
CC1=CC(=O)[C@H]2C(C)(C)CCC[C@]2(C)[C@@]1(O)CCc1ccoc1	3.57
CC(=O)OCC(=O)[C@H]1CC[C@H]2[C@@H]3CC=C4C[C@@H](O)CC[C@]4(C)[C@H]3CC[C@]12C	0.605
Clc1ccc2c(c1)C(N1CCNCC1)=Nc1ccccc1O2	3.93
CC(C)[C@@H](C)/C=C/[C@@H](C)[C@H]1CC[C@H]2C3=CC=C4C[C@@H](O)CC[C@]4(C)[C@H]3CC[C@]12C	2.61
O=C1c2ccccc2C(=O)C1c1ccccc1	5.5
O=C(O)CCc1nc(-c2ccccc2)c(-c2ccccc2)o1	0.955
CC[C@H]1OC(=O)[C@H](C)[C@@H](O[C@H]2C[C@@](C)(OC)[C@@H](O)[C@H](C)O2)[C@H](C)[C@@H](O[C@@H]2O[C@H](C)C[C@H](N(C)C)[C@H]2O)[C@](C)(O)C[C@@H](C)C(=O)[C@H](C)[C@@H](O)[C@]1(C)O	-0.744
CC1=C(/C=C/C(C)=C/C=C/C(C)=C/C=C/C=C(C)/C=C/C=C(C)/C=C/C2=C(C)CCCC2(C)C)C(C)(C)CCC1 [beta-CAROTENE]	0.313
NC(=O)c1ccccc1O	11.2
CCOC(=O)N1CCC(=C2c3ccc(Cl)cc3CCc3cccnc32)CC1	0.757
Nc1nc(F)nc2c1ncn2[C@@H]1O[C@H](COP(=O)(O)O)[C@@H](O)[C@@H]1O	1.08
COc1ccc(-c2coc3cc(O)ccc3c2=O)cc1	2.47
Oc1c(Br)cc(Br)c2cccnc12	1.23
CCC(=O)O[C@H]1CC[C@H]2[C@@H]3CCc4cc(O)ccc4[C@H]3CC[C@]12C	1.11
CN(C)[C@@H]1C(O)=C(C(N)=O)C(=O)[C@@]2(O)C(O)=C3C(=O)c4c(O)cccc4[C@@](C)(O)[C@H]3C[C@@H]12	0.697
COC(=O)[C@H](c1ccccc1Cl)N1CCc2sccc2C1	1
C[C@]12CCC(=O)C=C1CC[C@@H]1[C@@H]2C(=O)C[C@@]2(C)[C@H]1CC[C@]2(O)C(=O)CO	4.08
CCCCCC1C(=O)CCC1CC(=O)OC (centres undefined)	2.67
Nc1ccc(S(=O)(=O)NC(=O)c2ccccc2)cc1	11.2
C[N+](C)(C)CCOP(=O)(O)OP(=O)([O-])OC[C@H]1O[C@@H](n2ccc(N)nc2=O)[C@H](O)[C@@H]1O	3.16
C=C(CC)C(=O)c1ccc(OCC(=O)O)c(Cl)c1Cl	-2.5
O=c1cc(-c2ccc(O)cc2)oc2cc(O[C@@H]3O[C@H](CO)[C@@H](O)[C@H](O)[C@H]3O[C@@H]3OC[C@](O)(CO)[C@H]3O)cc(O)c12	2.26

Seven entries out of the list, sorted by length of the SMILES, smallest number first:
Compound	AlphaScreen HuR-RNA complex signal Z-score
Nc1ccc(S(=O)(=O)NC(=O)c2ccccc2)cc1	11.2
COC(=O)[C@H](c1ccccc1Cl)N1CCc2sccc2C1	1
Nc1nc(F)nc2c1ncn2[C@@H]1O[C@H](COP(=O)(O)O)[C@@H](O)[C@@H]1O	1.08
CC(=O)OCC(=O)[C@H]1CC[C@H]2[C@@H]3CC=C4C[C@@H](O)CC[C@]4(C)[C@H]3CC[C@]12C	0.605
C[N+](C)(C)CCOP(=O)(O)OP(=O)([O-])OC[C@H]1O[C@@H](n2ccc(N)nc2=O)[C@H](O)[C@@H]1O	3.16
CC(C)[C@@H](C)/C=C/[C@@H](C)[C@H]1CC[C@H]2C3=CC=C4C[C@@H](O)CC[C@]4(C)[C@H]3CC[C@]12C	2.61
CC[C@H]1OC(=O)[C@H](C)[C@@H](O[C@H]2C[C@@](C)(OC)[C@@H](O)[C@H](C)O2)[C@H](C)[C@@H](O[C@@H]2O[C@H](C)C[C@H](N(C)C)[C@H]2O)[C@](C)(O)C[C@@H](C)C(=O)[C@H](C)[C@@H](O)[C@]1(C)O	-0.744

Next part:

Compound	AlphaScreen HuR-RNA complex signal Z-score
C[C@](N)(Cc1ccc(O)cc1)C(=O)O [alpha-METHYL-L-TYROSINE]	2.84
CC(C)NCC(O)COc1cccc2ccccc12 (racemic)	2.21
CS(=O)(=O)c1ccc([C@@H](O)[C@@H](CF)NC(=O)C(Cl)Cl)cc1	1.69
CCN(CC)CCCC(C)Nc1ccnc2cc(Cl)ccc12 (centres undefined)	-3.9
c1ccc2c(c1)CCCC2C1=NCCN1 (centres undefined)	9.29
Oc1ccc2c(c1)OC[C@]1(O)Cc3cc(O)c(O)cc3[C@H]21	1.85
C1N2CN3CN1CN(C2)C3	1.13
O=C(O)C1=C[C@@H](O)[C@@H](O)[C@H](O)C1	1.26
COc1cc(O)c(C(=O)/C=C/c2ccc(OC)c(O)c2)c(OC)c1	0.0759
CC(CCC(=O)O)[C@H]1CCC2C3C[C@H](O)[C@@H]4C[C@H](O)CC[C@]4(C)C3CC[C@@]21C (stereo partly drawn) [alpha-HYDROXYDEOXYCHOLIC ACID]	3.42
OC[C@@H](O)[C@@H](O)[C@H](O)[C@H](O)CO	-3.35
C=CCc1ccc(O)c(OC)c1	-0.649
CCn1cc(C(=O)O)c(=O)c2cc(F)c(N3CCNCC3)nc21	1.29
CC(=O)N[C@@H](Cc1c[nH]c2ccccc12)C(=O)O	1.36
CC(C(=O)O)c1cccc(Oc2ccccc2)c1 (centres undefined)	0.806
O=C(O)CN(CCN(CC(=O)O)CC(=O)O)CC(=O)O.[Na+].[Na+].[Na+]	-3.59
O=C1OC(c2ccc(O)cc2)(c2ccc(O)cc2)c2ccccc21	-0.782
COc1cc(OC)c2c(=O)cc(-c3ccccc3)oc2c1	0.694
COc1ccc2c(C)cc(=O)oc2c1	0.9
COC(=O)C[C@H]1C(C)(C)[C@@H](O)[C@@H]2CC3=C4C=C(OC)O[C@@H](c5ccoc5)[C@]4(C)CCC3[C@@]1(C)C2=O (stereo partly drawn) [3-DEOXO-3beta-HYDROXYMEXICANOLIDE 16-ENOL ETHER]	2.88
CCCc1ncc(C[n+]2ccccc2C)c(N)n1	0.312
C=CC(C)(O)CCC=C(C)CCC=C(C)C (mixture of isomers)	0.839
